Each number is a percent effect as filed. The record does not define 0% and 100%; most values in the screen are far below 50% and negative numbers occur (in some assays of this library far below -100). Compounds were drawn at random from those tested, without regard to their results.

The chains behind the UniProt entries cited, without tags or fusion partners. Residues count along the entry.
UniProt P9WFT3, whole entry: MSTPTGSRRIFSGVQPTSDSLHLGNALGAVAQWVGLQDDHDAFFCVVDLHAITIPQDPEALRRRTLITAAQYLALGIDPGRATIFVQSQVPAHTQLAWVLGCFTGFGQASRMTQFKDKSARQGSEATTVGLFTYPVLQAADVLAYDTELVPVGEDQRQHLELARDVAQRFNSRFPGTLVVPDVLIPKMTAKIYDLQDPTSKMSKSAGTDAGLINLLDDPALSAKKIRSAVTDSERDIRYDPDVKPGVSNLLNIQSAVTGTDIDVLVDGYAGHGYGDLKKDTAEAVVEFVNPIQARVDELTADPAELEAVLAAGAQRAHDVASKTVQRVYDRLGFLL
UniProt A4I591, 1-473: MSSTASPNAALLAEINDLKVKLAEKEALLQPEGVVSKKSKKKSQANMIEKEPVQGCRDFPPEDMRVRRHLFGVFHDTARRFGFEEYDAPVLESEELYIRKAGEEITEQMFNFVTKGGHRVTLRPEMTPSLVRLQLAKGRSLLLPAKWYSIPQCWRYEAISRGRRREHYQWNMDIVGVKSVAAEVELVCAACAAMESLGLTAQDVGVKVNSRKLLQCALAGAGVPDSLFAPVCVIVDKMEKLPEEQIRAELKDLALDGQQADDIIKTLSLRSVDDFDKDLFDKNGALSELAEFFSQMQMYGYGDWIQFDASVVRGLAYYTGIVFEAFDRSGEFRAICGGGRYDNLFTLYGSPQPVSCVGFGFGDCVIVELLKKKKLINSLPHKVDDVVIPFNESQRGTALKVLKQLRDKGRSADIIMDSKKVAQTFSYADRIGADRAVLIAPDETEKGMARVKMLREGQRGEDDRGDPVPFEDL

A: 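Enzyme assay of tryptophanyl-tRNA synthetase; the read-out is not stated. Target: Tryptophan-tRNA ligase, Mycobacterium tuberculosis (UniProt P9WFT3). Compounds at 10 µM. Higher most likely means stronger inhibition; the record gives no direction and few retests gave an IC50. About 65,000 compounds were tested under these conditions; 0.098% (about 64) showed 50% or more at least once.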
B: 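Enzyme assay of histidyl-tRNA synthetase; the read-out is not stated. Target: Histidine-tRNA ligase, Leishmania infantum (UniProt A4I591). Compounds at 30 µM. The record gives no direction; compounds that gave an IC50 in retests scored well above the rest, so higher reads as stronger inhibition. The assay is labelled LdHisRS but filed under L. infantum. About 69,000 compounds were tested under these conditions; 0.6% (about 410) showed 50% or more at least once.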

Compound: O=C(CSCCN1CCOCC1)N1CCc2ccccc2C1
A: 1.175%
B: 12.24%

Compound: CC(C)CCN1CCN(C(=O)c2c[nH]nn2)CC1
A: 9.984%
B: 18.37%

Compound: CC(C)CC(=O)N1CCN(c2cc(N(C)C)cnn2)CC1
A: -4.027%
B: 1.739%

Compound: O=S(=O)(NCCCN1CC=CC1)c1cncc(Cl)c1
A: 13.42%
B: 14.17%

Compound: CC(=O)Nc1cccc2c1ccn2CC(=O)Nc1nc[nH]n1
A: 2.72%
B: 21.74%

Compound: CCCc1noc(C2CCCCN2C(=O)C2CCCC2)n1 (stereo unspecified)
A: -1.29%
B: 8.85%

Compound: CN(C)Cc1ccc(CNC(=O)NCC2(C)CCCS2)cc1 (stereo unspecified)
A: 3.86%
B: 17.07%

Compound: CCSc1ncc(Cl)c(C(=O)NC(CCSC)C(=O)O)n1 (stereo unspecified)
B: 16.49%

Compound: Cc1noc2ncc(S(=O)(=O)Nc3cc(C(C)(C)C)n[nH]3)cc12
A: 0.289%
B: 10.99%

Compound: COc1cc(F)c(S(=O)(=O)Nc2cnc(O)cc2C)cc1OC
A: 6.118%
B: 97.59%

Compound: CCOC(C)c1noc(CN(C)C(=O)c2cc3ccccn3c2)n1 (stereo unspecified)
A: 3.191%
B: 11.43%

Compound: Cc1ccc(C(=O)N2CCC(Oc3ccc(F)cc3F)CC2)c(=O)[nH]1
A: -1.73%
B: 18.4%

Compound: Cc1cccc(NCC(=O)Nc2cc(F)ccc2F)c1C(N)=O
A: 4.583%
B: 18.52%

Compound: O=C(NCc1ccc2c(c1)OCCO2)N1CCC(CO)CC1
A: 0%
B: 17.58%

Compound: COc1ccc(CN2CCn3cncc3C2)cc1Cn1cncn1
A: 0%
B: 24.24%

Compound: Cc1nc(CN2CC3(CCN(c4cnccn4)C3)CC2=O)cs1 (stereo unspecified)
A: 1.798%
B: 12.82%

Compound: Cc1cc(NC(=O)NCc2ccncc2)ccc1OC(C)C
A: 1.955%
B: 31.25%

Compound: CCn1ncnc1C(C)NC(=O)C1CCN(Cc2ccco2)CC1 (stereo unspecified)
A: -8.411%
B: 14.47%

Compound: Cc1noc(C(C)C)c1C(=O)NCCN1CCOCC1
A: -13.92%
B: 13.46%

Compound: O=C(NC1CCOCC1)C1CC(=O)N(Cc2ccccn2)C1 (stereo unspecified)
A: 3.133%
B: 7.547%

Compound: Nc1cccnc1N1CCC(c2ccccc2)CC1
A: -3.574%
B: 22.92%

Compound: CCC(=O)N1CCN(Cc2cnc(C)nc2)[C@H]2CS(=O)(=O)C[C@H]21
A: 1.125%
B: -4.348%

Compound: COCCNc1nc(-n2nc(C)cc2C)nc2sc3c(c12)CCCC3
A: -1.492%
B: -2.5%

Compound: Cc1cc(-c2nn3c(C4CC4)nnc3s2)on1
A: 2.973%
B: 6.522%

Compound: CCCS(=O)(=O)N1CCC2(CCC(=O)N(CCc3cccnc3)C2)CC1
A: -1.729%
B: 12%

Compound: Cc1cc(NCc2cn(C)nc2-c2cccnc2)n(C)n1
A: 3.215%
B: 21.74%

Compound: CS(=O)(=O)N1CC2(CCN(CC3CCCCC3)C2)Cc2ccccc21 (stereo unspecified)
A: -8.038%
B: 6.897%

Compound: COc1ncccc1NC(=O)N1CCC(C(=O)NC(C)C)CC1
A: -2.033%
B: 11.57%

Compound: CCC(NC(=O)C1CCN(S(C)(=O)=O)CC1)c1ccc(OC)c(C)c1 (stereo unspecified)
A: 0.08285%
B: 0.9434%

Compound: Cc1ccc(OCCN(C)S(=O)(=O)N2CCOCC2)cc1
A: -7.404%
B: 11.84%

Compound: Cc1cnn(CCC(=O)N2CCCC(c3noc(C)n3)C2)c1 (stereo unspecified)
A: 2.466%
B: 7.692%

Compound: Cc1cccc(CNC2CCCc3c2cnn3Cc2ccccc2)c1 (stereo unspecified)
A: -5.085%
B: 18.42%

The last 3 entries again:

Compound	A	B
Cc1ccc(OCCN(C)S(=O)(=O)N2CCOCC2)cc1	-7.404%	11.84%
Cc1cnn(CCC(=O)N2CCCC(c3noc(C)n3)C2)c1 (stereo unspecified)	2.466%	7.692%
Cc1cccc(CNC2CCCc3c2cnn3Cc2ccccc2)c1 (stereo unspecified)	-5.085%	18.42%

Source: ChEMBL document CHEMBL3988442, “University of Dundee, Small-Polar-MMV Screening Library” (2021).